Laboratory results: patent US20210277137A1
These are yes or no findings as the source states them, for the method shown. Some entries that bind do so weakly or less than the wild type.

Chains of the proteins cited; added tags and fusions are not shown. Lines headed by an entry give the natural chain unless they say otherwise; changes in a name come on top. A line that says so, or that is headed by a name, gives the form on record, which may keep a tag or linker.
soluble cynomolgus (cyno) CD40 (Creative BioMart, cat #CD40-8824C) (G7PG38, form named): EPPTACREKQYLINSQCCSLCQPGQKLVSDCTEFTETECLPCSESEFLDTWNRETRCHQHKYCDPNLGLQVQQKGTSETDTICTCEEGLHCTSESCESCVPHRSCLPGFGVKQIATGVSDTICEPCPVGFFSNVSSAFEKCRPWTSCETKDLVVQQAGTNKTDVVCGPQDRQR

Molecular target: soluble cynomolgus (cyno) CD40 (Creative BioMart, cat #CD40-8824C) (cynomolgus) (UniProt G7PG38)
Assay: SPR (BIAcore T200)

B1: Humanized muAb8 #1 (antibody, V domains shown)
VH: EVQLVQSGAEVKKPGSSVKVSCKASGYTFTDYYINWVRQAPGQGLEWIGWIFPGSGSVYCNEQFKGRATLTVDRSTSTAYMELSSLRSEDTAVYFCASSLGKFAYWGQGTLVTVSS
VL: DIQMTQSPSSLSASVGDRVTITCKASQSVVTAVAWYQQKPGKSPKLLIYSASNRYTGVPSRFSGSGSGTDFTLTISSLQPEDFATYFCQQYSSYPYTFGGGTKVEIK
With B1 the binding was “binds”.
